# Experimental data: patent publication US11026942B2, “Agent for preventing and/or treating Alzheimer's disease” (KYOTO UNIVERSITY, priority 2015, dated 2021)
# System: Aβ42/40 ratio
# Experiment: Aβ42/40 ratio in FAD1 iPS cell-derived nerve cells (primary/secondary screening, dose dependency)
# Assay type: cell-based, human
# Details: secondary screening
# Text: To perform induction from iPS cells to the cerebral cortex nerve early and with high reproducibility, iPS cells introduced with human Neurogenin 2 gene (NGN2) linked to doxycycline-inducible promoter by using PiggyBac were used (FIG. 1a, FIG. 1b, FIG. 4a and FIG. 4b). IPS cells prepared from 4 patients with familial Alzheimer's disease (FAD), 2 patients with sporadic Alzheimer's disease (SAD) and 4 healthy individuals (HC) were used. The iPS cells were established by the method described in Okita K et al., Nature.
# Structural formulas (those in the form of salt or halide are also described as free form) and the general names of the candidate compounds are shown in Table 1.
# To further study reproducibility of the candidate drugs obtained by the primary screening, secondary screening was conducted. In addition to Aβ40, Aβ42, Aβ42/40 ratio, Aβ38, Aβ43, sAPPα, sAPPβ were also studied and each numerical value was obtained.
smiles,measurement,value
"CCN(CC)CCOC(=O)C1(C2CCCCC2)CCCCC1 [compound 104, DICYCLOMINE]",Ratio Aβ42/40,0.99
